Results deposited as PubChem BioAssay AID1259405 (NCATS, 2018)
Here is a random part of about 50,000 deposited reagents. Over the whole deposit, about 4,000 (8%) got an active call. 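Mouse siRNA library applied to hamster cells; one well for each siRNA.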 Entries without a mark were called inactive. Reagents against one gene are numbered here. Reagent sequences are not shown.

Test: 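Mouse-designed siRNAs used to find CHO productivity engineering targets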 (primary screen)
System: Chinese hamster CHO-K1 ovary cells with stable secreted eGFP expression
Knock-down reagent: single siRNA against mouse genes, 0.8 pmol siRNA per well (2 µl of 400 nM stock)
Timing: 3 days
Read-out: 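Per-well intracellular GFP measured by laser scanning cytometry, plus viability from ATP luminescence, each relative to plate median of non-targeting control wells, in %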
Direction: GFP, % of control: higher = more GFP per well, higher productivity; viability (ATP), % of control: higher = more viable cells (more ATP)
Hit rule: 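Called active when intracellular GFP, relative to negative control, is at or above 120%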

gene	reagent no.	GFP, % of control	viability (ATP), % of control
Cdc27 (cell division cycle 27)	1	95.2	105
Cdc27 (cell division cycle 27)	2	75.6	90.5
Cdc27 (cell division cycle 27)	3	126 (active)	111
Zmiz1 (zinc finger, MIZ-type containing 1)	1	35.4	34.4
Zmiz1 (zinc finger, MIZ-type containing 1)	2	83.5	72
Zmiz1 (zinc finger, MIZ-type containing 1)	3	101	143
Tmem160 (transmembrane protein 160)	1	106	81.1
Tmem160 (transmembrane protein 160)	2	48.4	42.3
Tmem160 (transmembrane protein 160)	3	81.6	92.7
Dhx58 (DExH-box helicase 58)	1	72.3	56.6
Dhx58 (DExH-box helicase 58)	2	121 (active)	73.2
Dhx58 (DExH-box helicase 58)	3	63	34.1
Etd (embryonic testis differentiation)	1	62.6	80
Etd (embryonic testis differentiation)	2	40.5	47
Etd (embryonic testis differentiation)	3	32.9	25.3
Mfap2 (microfibrillar-associated protein 2)	1	49.4	38.3
Mfap2 (microfibrillar-associated protein 2)	2	72.9	65.8
Mfap2 (microfibrillar-associated protein 2)	3	62.9	64.3
Armcx1 (armadillo repeat containing, X-linked 1)	1	58.9	66.3
Armcx1 (armadillo repeat containing, X-linked 1)	2	45.4	55.9
Armcx1 (armadillo repeat containing, X-linked 1)	3	52.5	67.7
Dbx2 (developing brain homeobox 2)	1	82.1	76.5
Dbx2 (developing brain homeobox 2)	2	88.5	66.1
Dbx2 (developing brain homeobox 2)	3	86.1	101
Card10 (caspase recruitment domain family, member 10)	1	106	80.7
Card10 (caspase recruitment domain family, member 10)	2	136 (active)	89.8
Dsc1 (desmocollin 1)	1	78.4	63.8
Dsc1 (desmocollin 1)	2	64.2	84.6
Dsc1 (desmocollin 1)	3	50.7	52.1
Defb13 (defensin beta 13)	1	57.7	78.5
Defb13 (defensin beta 13)	2	61.3	114
Defb13 (defensin beta 13)	3	99.3	78
Ccl20 (C-C motif chemokine ligand 20)	1	59.6	52
Ccl20 (C-C motif chemokine ligand 20)	2	35.2	25.1
Ccl20 (C-C motif chemokine ligand 20)	3	61.1	68.4
Slc35b4	1	23.6	54.8
Slc35b4	2	77.1	91.9
Slc35b4	3	92.4	105
Dcun1d5 (defective in cullin neddylation 1 domain containing 5)	1	80	79.9
Dcun1d5 (defective in cullin neddylation 1 domain containing 5)	2	71.9	58.2
Dcun1d5 (defective in cullin neddylation 1 domain containing 5)	3	87.6	73.9
Stat4 (signal transducer and activator of transcription 4)	1	87.9	96.3
Stat4 (signal transducer and activator of transcription 4)	2	55.9	85.9
Stat4 (signal transducer and activator of transcription 4)	3	54.5	75
Eva1b (eva-1 homolog B)	1	60.4	47.1
Eva1b (eva-1 homolog B)	2	60.7	33.3
Eva1b (eva-1 homolog B)	3	58.2	68.3
Gm5114 (predicted gene 5114)	1	40.3	46.3
Gm5114 (predicted gene 5114)	2	53.2	65.8
Gm5114 (predicted gene 5114)	3	42.5	56.4
Samd12 (sterile alpha motif domain containing 12)	1	100	63.8
Samd12 (sterile alpha motif domain containing 12)	2	65.1	64.2
Samd12 (sterile alpha motif domain containing 12)	3	122 (active)	70.9
Ccdc85a (coiled-coil domain containing 85A)	1	78.4	80
Ccdc85a (coiled-coil domain containing 85A)	2	43.9	32.2
Ccdc85a (coiled-coil domain containing 85A)	3	62.6	77
Pacs2 (phosphofurin acidic cluster sorting protein 2)	1	57.7	70.5
Pacs2 (phosphofurin acidic cluster sorting protein 2)	2	78.6	83.4
Pacs2 (phosphofurin acidic cluster sorting protein 2)	3	135 (active)	123

In a second layout: 4 of the entries above.
Card10 (caspase recruitment domain family, member 10) #2: GFP, % of control = 136 (active); viability (ATP), % of control = 89.8
Dsc1 (desmocollin 1) #1: GFP, % of control = 78.4; viability (ATP), % of control = 63.8
Dsc1 (desmocollin 1) #2: GFP, % of control = 64.2; viability (ATP), % of control = 84.6
Dsc1 (desmocollin 1) #3: GFP, % of control = 50.7; viability (ATP), % of control = 52.1
